No constants are given. Whether binding was seen depends on the method and setting.

This experiment has as its target T1, CheV1 (full length, from pKNT25-cheV1) (H. pylori) (UniProt O24864).
T1 sequence: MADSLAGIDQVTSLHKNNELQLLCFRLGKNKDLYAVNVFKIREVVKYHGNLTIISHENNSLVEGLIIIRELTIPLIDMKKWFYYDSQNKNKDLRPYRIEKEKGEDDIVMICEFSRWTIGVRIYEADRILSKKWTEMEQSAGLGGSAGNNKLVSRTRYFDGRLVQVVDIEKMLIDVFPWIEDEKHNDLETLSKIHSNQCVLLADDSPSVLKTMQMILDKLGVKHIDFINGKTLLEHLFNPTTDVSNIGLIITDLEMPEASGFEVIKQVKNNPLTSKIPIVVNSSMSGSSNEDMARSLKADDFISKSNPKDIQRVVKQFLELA
In words: two-hybrid.

As for “HPG27_252 (full length) with the adenyl cyclase T18 fragment at the C-terminal end (H. pylori G27)”, the binding result is “no binding”.

The record behind these values is doi:10.1101/2023.04.27.537399.
